Data as given in patent US8759301B2, “Gene fusion targeted therapy” (The Regents of The University of Michigan, priority 2010, dated 2014).
Like-named read-outs stand apart in the source and are kept apart here. The source gives many values for each of these; only a part stands here.

Sequences of proteins named here, by UniProt entry; tags and fusion partners are left off. A change or cut given only in a name is not applied to a line headed by its entry.
UniProt P10275: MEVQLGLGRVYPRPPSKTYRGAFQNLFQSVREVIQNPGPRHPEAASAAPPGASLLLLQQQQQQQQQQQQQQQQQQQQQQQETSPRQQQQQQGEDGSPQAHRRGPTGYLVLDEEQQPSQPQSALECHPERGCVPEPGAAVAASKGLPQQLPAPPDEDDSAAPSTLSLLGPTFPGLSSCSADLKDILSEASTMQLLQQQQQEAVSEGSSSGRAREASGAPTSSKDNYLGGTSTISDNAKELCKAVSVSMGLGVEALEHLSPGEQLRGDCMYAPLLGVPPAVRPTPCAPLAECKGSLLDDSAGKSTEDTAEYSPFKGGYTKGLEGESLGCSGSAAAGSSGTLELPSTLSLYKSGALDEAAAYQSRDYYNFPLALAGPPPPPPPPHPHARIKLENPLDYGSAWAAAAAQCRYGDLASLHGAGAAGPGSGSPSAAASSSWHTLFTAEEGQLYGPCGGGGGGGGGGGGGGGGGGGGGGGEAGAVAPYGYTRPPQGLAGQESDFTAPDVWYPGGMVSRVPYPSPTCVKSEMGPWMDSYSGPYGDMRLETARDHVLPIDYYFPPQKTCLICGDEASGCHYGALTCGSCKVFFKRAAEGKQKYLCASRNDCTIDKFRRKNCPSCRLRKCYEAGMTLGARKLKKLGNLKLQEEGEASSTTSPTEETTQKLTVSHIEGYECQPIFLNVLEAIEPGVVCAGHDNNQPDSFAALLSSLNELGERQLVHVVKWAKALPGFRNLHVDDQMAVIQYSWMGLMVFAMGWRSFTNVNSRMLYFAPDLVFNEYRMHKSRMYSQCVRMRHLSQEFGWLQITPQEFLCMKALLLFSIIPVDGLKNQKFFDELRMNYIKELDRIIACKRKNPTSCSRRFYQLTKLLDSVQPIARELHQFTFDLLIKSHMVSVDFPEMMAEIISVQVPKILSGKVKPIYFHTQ

Target: AR (Homo sapiens, UniProt P10275)
Conditions: VCaP R1881-treated
Protocol: For ERG ChIP, LNCaP, VCaP, RWPE+ERG, and RWPE+GUS cells grown in corresponding regular medium were used.
ChIP samples were prepared for sequencing using the Genomic DNA sample prep kit (Illumina) following manufacturers protocols. ChIP-Sequencing was performed using Illumina Genome Analyzer according to standard manufacturer's procedures. The raw sequencing image data were analyzed by the Illumina analysis pipeline, aligned to the unmasked human reference genome (NCBI v36, hg18) using the ELAND software (Illumina) to generate sequence reads of 25-32 bps.
It was first counted how many uniquely mapped reads are there in each sample and the ratio of the two counts was used as the normalizing factor to bring the total number of useable reads to the same level in both samples. Next each uniquely mapped read was extended directionally to form a 200 bp hypothetical DNA fragment (HDF) in each sample. 200 is assumed to be the average length of size-selected DNA pieces during sample preparation (175-225 bp).
Under the null hypothesis of no enrichment in the stimulated sample versus unstimulated samples, reads from both samples are assumed to land on the genome following the same Poisson distribution (after corrected for the read counts in the unstimulated sample). The average sequencing depth across the whole genome is used as the background rate estimate r0. The probability of observing the read difference between two samples in each coverage region was calculated numerically.
HMM was applied to define where enriched regions start and end. To be specific, the entire genome was partitioned into 25 bp bin and the read coverage is counted in each bin in the two samples. The two states are enriched region and background. The observed data are HDF coverage difference. In the enriched regions, it was expected that enrichment of HDFs would be present in the stimulated sample but not in the unstimulated samples. Therefore the differences are assumed to be the result of two different Poisson distributions with rates r1 and r2, r1>r2. In background, the differences are assumed to come from two identical Poisson distribution with rate r0. The transition probabilities are estimated empirically. From the output of HMM, regions are selected based on posterior probability of being in the enriched regions.

## C[C@]1(O)CC[C@H]2[C@@H]3CCC4=CC(=O)CCC4=C3C=C[C@@]21C [R1881, methyltrienolone]
Distance to TSS 103 kb
  number of AR binding sites: 8
Distance to TSS 104 kb
  number of AR binding sites: 15
Distance to TSS 105 kb
  number of AR binding sites: 9
Distance to TSS 106 kb
  number of AR binding sites: 13
Distance to TSS 107 kb
  number of AR binding sites: 14
Distance to TSS 108 kb
  number of AR binding sites: 9
Distance to TSS 109 kb
  number of AR binding sites: 7
Distance to TSS 110 kb
  number of AR binding sites: 9
Distance to TSS 111 kb
  number of AR binding sites: 6
Distance to TSS 112 kb
  number of AR binding sites: 11
Distance to TSS 113 kb
  number of AR binding sites: 8
Distance to TSS 114 kb
  number of AR binding sites: 9
Distance to TSS 115 kb
  number of AR binding sites: 15
Distance to TSS 116 kb
  number of AR binding sites: 9
Distance to TSS 117 kb
  number of AR binding sites: 5
Distance to TSS 118 kb
  number of AR binding sites: 14
Distance to TSS 119 kb
  number of AR binding sites: 6
Distance to TSS 120 kb
  number of AR binding sites: 8
Distance to TSS 121 kb
  number of AR binding sites: 12
Distance to TSS 122 kb
  number of AR binding sites: 11
Distance to TSS 123 kb
  number of AR binding sites: 8
Distance to TSS 124 kb
  number of AR binding sites: 8
Distance to TSS 125 kb
  number of AR binding sites: 4
Distance to TSS 126 kb
  number of AR binding sites: 11
Distance to TSS 127 kb
  number of AR binding sites: 7
Distance to TSS 128 kb
  number of AR binding sites: 7
Distance to TSS 129 kb
  number of AR binding sites: 8
Distance to TSS 130 kb
  number of AR binding sites: 4
Distance to TSS 131 kb
  number of AR binding sites: 9
Distance to TSS 132 kb
  number of AR binding sites: 11
Distance to TSS 133 kb
  number of AR binding sites: 7
Distance to TSS 134 kb
  number of AR binding sites: 10
Distance to TSS 135 kb
  number of AR binding sites: 9
Distance to TSS 136 kb
  number of AR binding sites: 15
Distance to TSS 137 kb
  number of AR binding sites: 13
Distance to TSS 138 kb
  number of AR binding sites: 12
Distance to TSS 139 kb
  number of AR binding sites: 7
Distance to TSS 140 kb
  number of AR binding sites: 7
Distance to TSS 141 kb
  number of AR binding sites: 7
Distance to TSS 142 kb
  number of AR binding sites: 5
Distance to TSS 143 kb
  number of AR binding sites: 8
Distance to TSS 144 kb
  number of AR binding sites: 6
Distance to TSS 145 kb
  number of AR binding sites: 6
Distance to TSS 146 kb
  number of AR binding sites: 7
Distance to TSS 147 kb
  number of AR binding sites: 6
Distance to TSS 148 kb
  number of AR binding sites: 4
Distance to TSS 149 kb
  number of AR binding sites: 10
Distance to TSS 150 kb
  number of AR binding sites: 7
Distance to TSS 151 kb
  number of AR binding sites: 6
Distance to TSS 152 kb
  number of AR binding sites: 4
Distance to TSS 153 kb
  number of AR binding sites: 8
Distance to TSS 154 kb
  number of AR binding sites: 7
Distance to TSS 155 kb
  number of AR binding sites: 7
Distance to TSS 156 kb
  number of AR binding sites: 1
Distance to TSS 157 kb
  number of AR binding sites: 7
Distance to TSS 158 kb
  number of AR binding sites: 3
Distance to TSS 159 kb
  number of AR binding sites: 8
Distance to TSS 160 kb
  number of AR binding sites: 8
Distance to TSS 161 kb
  number of AR binding sites: 2
Distance to TSS 162 kb
  number of AR binding sites: 3
Distance to TSS 163 kb
  number of AR binding sites: 5
Distance to TSS 164 kb
  number of AR binding sites: 5
Distance to TSS 165 kb
  number of AR binding sites: 7
Distance to TSS 166 kb
  number of AR binding sites: 5
Distance to TSS 167 kb
  number of AR binding sites: 3
Distance to TSS 168 kb
  number of AR binding sites: 3
Distance to TSS 169 kb
  number of AR binding sites: 5
Distance to TSS 170 kb
  number of AR binding sites: 2
Distance to TSS 171 kb
  number of AR binding sites: 6
Distance to TSS 172 kb
  number of AR binding sites: 6
Distance to TSS 173 kb
  number of AR binding sites: 6
Distance to TSS 174 kb
  number of AR binding sites: 7
Distance to TSS 175 kb
  number of AR binding sites: 4
Distance to TSS 176 kb
  number of AR binding sites: 3
Distance to TSS 177 kb
  number of AR binding sites: 3
Distance to TSS 178 kb
  number of AR binding sites: 4
Distance to TSS 179 kb
  number of AR binding sites: 5
Distance to TSS 180 kb
  number of AR binding sites: 7
Distance to TSS 181 kb
  number of AR binding sites: 5
Distance to TSS 182 kb
  number of AR binding sites: 8
Distance to TSS 183 kb
  number of AR binding sites: 1
Distance to TSS 184 kb
  number of AR binding sites: 6
Distance to TSS 185 kb
  number of AR binding sites: 6
Distance to TSS 186 kb
  number of AR binding sites: 4
Distance to TSS 187 kb
  number of AR binding sites: 4
Distance to TSS 188 kb
  number of AR binding sites: 2
Distance to TSS 189 kb
  number of AR binding sites: 5
Distance to TSS 190 kb
  number of AR binding sites: 6
Distance to TSS 191 kb
  number of AR binding sites: 2
Distance to TSS 192 kb
  number of AR binding sites: 1
Distance to TSS 193 kb
  number of AR binding sites: 3
Distance to TSS 194 kb
  number of AR binding sites: 1
Distance to TSS 195 kb
  number of AR binding sites: 5
Distance to TSS 197 kb
  number of AR binding sites: 2
Distance to TSS 198 kb
  number of AR binding sites: 3
Distance to TSS 199 kb
  number of AR binding sites: 2
